Experimental data taken from patent publication US20160376343A1.
Results are given in words; binding and its absence hold for the method and conditions named. Some binding calls cover weakened binding; strength is not graded here.

Sequences of proteins named here, by UniProt entry; tags and fusion partners are left off. Residues count along the entry.
UniProt Q16552, residues 24-155: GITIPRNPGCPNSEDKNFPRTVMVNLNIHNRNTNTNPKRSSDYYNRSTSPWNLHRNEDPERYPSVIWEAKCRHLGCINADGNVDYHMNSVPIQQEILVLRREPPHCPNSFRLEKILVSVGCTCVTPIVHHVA

Each binder was assayed against hIL-17A (human) (UniProt Q16552) (assay: ELISA of purified protein from mammalian cells at 5, 2.5, 1 and 0.5 µg/ml on plate-immobilised hIL-17A, OD 450 nm).

| binding | Binder |
| --- | --- |
| binds | V6 (Fc fusion, not shown: a dimerising Fc or GST; small tags and cut ends) SLRLLDHRALVCSQEGLNCTVKNSTCLDDSWIHPRNLTPSSPKDLQIQLHFAHTQQGDLLPVAHIEWTLQTDASILYLEGAELSVLQLNTNERLCVRFEFLSKLRHHHKRWRFTFSHFVVDPGQEYEVTVHHLPKPIPDGDPNHQSKNFLVPDCEHARMKVTTPCMSSGSLWDPNITVETLEAHQLRVSFTLWNESTHYQILLTSFPHMENHSCFEHMHHIPAPRPEEFHQRSNVTLTLRNLKGCCRHQVQIQPFFSSCLNDCLRHSATVSCPEMPDTPEPIPDYMPLW |
| binds | V7 (Fc fusion, not shown: a dimerising Fc or GST; small tags and cut ends) SLRLLDHRALVCSQPGLNCTVKNSTCLDDSWIHPRNLTPSSPKDLQIQLHFAHTQQGDLVPVAHIEWTLQTDASILYLEGAELSVLQLNTNERLCVRFEFLSKLRHHHKRWRFTFSHFVVDPDQEYEVTVHHLPKPIPDGDPNHQSKNFLVPDCEDARMKVTTPCMSSGSLWDPNITVETLEAHQLRVSFTLWNESTHYQILLTSFPHMENHSCFEHMHHIPAPRPEEFHQRSNVTLTLRNLKGCCRHQVQIQPFFSSCLNDCLRHSATVSCPEMPDTPEPIPDYMPLW |
| binds | V8 (Fc fusion, not shown: a dimerising Fc or GST; small tags and cut ends) SLRLLDHRALVCSQEGLNCTVKNSTCLDDSWIHPRNLTPSSPKDLQIQLHFAHTQQGDLFPVAHIEWTLQTDASILYLEGAELSVLQLNTNERLCVRFEFLSKLRHHHKRWRFTFSHFVVDPDQEYEVTVHHLPKPIPDGDPNHQSKNFLVPDCEDARMKVTTPCMSSGSLWDPNITVETLEAHQLRVSFTLWNESTHYQILLTSFPHMENHSCFEHMHHIPAPRPEEFHQRSNVTLTLRNLKGCCRHQVQIQPFFSSCLNDCLRHSATVSCPEMPDTPEPIPDYMPLW |
